B1: tRNA (parent)
chain: GUUCCGUUGGCGUAAUGGUAACGCGUCUCCCUCCUAAGGAGAAGACUGCGGGUUCGAGUCCCGUACGGAACG

Variants at the floor of the assay are shown more often than the library holds them.

The variants in the data set derive from B1. The data set is described as follows: yeast fitness relative to wild type (ratio to wild type); higher = fitter; tRNA-Arg(CCU), competitive growth, 37 C, YPD. The procedure, abridged:
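Amplicons of the tRNA-Arg(CCU) gene were sequenced, 100-nucleotide paired-end, from the start population and from each end population of a pooled yeast competition. The competition, in six parallel replicates, lasted 24 hours in YPD at 37°C. Fitness relative to wild type was calculated from changes in genotype frequencies. Genotypes had to have ≥ 100 starting reads, and estimates < 0.5 were set to 0.5.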
In the case of C5G A14G G18C C24U, the yeast fitness was at most 0.5.
Then C11G C33U A36G C55G, with at most 0.5.
With C4A G17C G50A C60U the figure was at most 0.5; with C27U A42U C49G, at most 0.5.
Then A36U G68C, with 0.698.
As for G25C C31A C55G, the yeast fitness is at most 0.5.
Then A45G C60G, with 0.821; and C5U C31G U32C A37C U54G, with at most 0.5; and U7G A15U G25U U32A G41A C61U, with at most 0.5.
Take C30U A36U A57G A65U: the yeast fitness is at most 0.5.
Then U7G G25A C49G, with 0.542; and C30U G68C, with 0.813.
Regarding G6C A21U A36C A57G, the yeast fitness is at most 0.5.
With C5U C22U G52A U53C U59G C61G C62U the figure was at most 0.5.
Then G6U U35G A69U, with 1.03.
With C5U U13C C24G U26C A37G G48A the figure was at most 0.5; with C4G C22U C30A C34U G38C C66U, at most 0.5; with G9C U47G U64C, at most 0.5.
With C22U C27A C31G G44C C62U, the yeast fitness was at most 0.5.
Then G12A C46G A70G, with 0.703; and A14G G25A A45G C60G G67A, with at most 0.5.
With G9C A21U U54A A70G the figure was at most 0.5; with C4G C29A, 0.757.
Then G9C C31U G39A A57C, with at most 0.5; and C4A U26A C34G G38A, with at most 0.5; and G6C U7G G17C C60G A70U, with at most 0.5.
In the case of C5G U7G C61G C66G, the yeast fitness is at most 0.5.
Then A15U A20G C33U, with at most 0.5.
With C24A C61U the figure was 0.718; with C5G A15U G63A, 0.551.
As for C31G A65C G67C, the yeast fitness was at most 0.5.
Then A15G C31G U35C A43C, with 0.586.
On to G58C C66G G68A, for which the yeast fitness is at most 0.5.
For U2C A43U G44C, the yeast fitness was at most 0.5.
Turning to C22U G44A C46G G51A C66G, the yeast fitness is at most 0.5.
Take U3G C11U A14G C62A: the yeast fitness was at most 0.5.
With A15U C30G A36C G48U C60A C61U the figure was at most 0.5; with C55G A65G C66G A70U, at most 0.5.
Then C4G C11A A69C, with at most 0.5; and C5U A40U G67C, with at most 0.5; and C27A C31G C60G, with 0.537.
With C24A A65U the figure was 0.549.
With U8A A40G C49G U54A C55A A65G A70U, the yeast fitness was at most 0.5.
Then A21G C49G G56C, with at most 0.5; and G23A G39C A40U G68C, with at most 0.5.
With C24U C31G C46U G63A the figure was at most 0.5.
Then C4G C29U G52C C62U A69U, with at most 0.5.
On to U8C C22U C27G A37G A42C, for which the yeast fitness is at most 0.5.
Take G10C C49U A65G: the yeast fitness is at most 0.5.
With G9C A14U U28G U32A C66U the figure was at most 0.5.
For the variant G6A U8C A14U, the yeast fitness came out at 0.564.
Then A36G A42U A57U U64C, with at most 0.5; and A15U G41C U54G, with at most 0.5.
For the variant A21U G23A A37U, the yeast fitness is at most 0.5.
With C22U U47A C61U the figure was at most 0.5; with G10C A14U U19A C22U C62A, at most 0.5; with C49U A70C, 1.02.
Consider G6C G9A A21U U28G C34U A45C, for which the yeast fitness is at most 0.5.
With U7G G9A C31G A36G A42U C60G the figure was at most 0.5; with A20U C31G A45U C46G G58A, at most 0.5; with U2A G10A A20U C22G G44C C61G, 0.502.
For the variant G9C U19G A57G, the yeast fitness was at most 0.5.
In the case of U2C C5A A57G C66G, the yeast fitness is at most 0.5.
Then C5U G18C C22A G51C, with 0.562.
With G6A C33U A70G the figure was at most 0.5.
Then A20C A42C A57U, with at most 0.5.
Turning to A21G A43G U53A A57U A65U, the yeast fitness is at most 0.5.
Consider C4G G12U A14C A69C, for which the yeast fitness is at most 0.5.
With G6C C27U A45G U64A A69C the figure was at most 0.5.
With C4U C33A U35A A43U the figure was at most 0.5; with U3C U8G C24G U28G C29G U35G U47A, at most 0.5.
Then U19C C31U C33G G41A C49G U54C U59C G63A, with at most 0.5.
As for C4G C5U U19A U47A, the yeast fitness was at most 0.5.
With C5U C29U C62G, the yeast fitness is at most 0.5.
With C24G C30U G39A G44C the figure was at most 0.5.
Then C24U C31G C55A A57U U59C C60U, with at most 0.5.
In the case of C11U A37C A40C U53C, the yeast fitness was at most 0.5.
Then A15C U19A C31U C34A, with at most 0.5.
Then C5G C30A G58C G68A, with at most 0.5.
Then U3C A40G C49G U59G G67C, with at most 0.5; and U8G A15U G41A G50C U53C C60G C62U, with at most 0.5.
Consider A14G A42G G51C, for which the yeast fitness is at most 0.5.
With C4G U8A G12A U54A the figure was at most 0.5.
With A15C U26C A40G U53C the figure was at most 0.5.

The record behind these values is the RNAGym collection of RNA variant scans (doi:10.1126/science.aae0568).
